In paper PMC9585242 one finds binding data, which are given here for 13 molecules.

Sequences of proteins named here, by UniProt entry; tags and fusion partners are left off. A change or cut given only in a name is not applied to a line headed by its entry.
UniProt Q585M4: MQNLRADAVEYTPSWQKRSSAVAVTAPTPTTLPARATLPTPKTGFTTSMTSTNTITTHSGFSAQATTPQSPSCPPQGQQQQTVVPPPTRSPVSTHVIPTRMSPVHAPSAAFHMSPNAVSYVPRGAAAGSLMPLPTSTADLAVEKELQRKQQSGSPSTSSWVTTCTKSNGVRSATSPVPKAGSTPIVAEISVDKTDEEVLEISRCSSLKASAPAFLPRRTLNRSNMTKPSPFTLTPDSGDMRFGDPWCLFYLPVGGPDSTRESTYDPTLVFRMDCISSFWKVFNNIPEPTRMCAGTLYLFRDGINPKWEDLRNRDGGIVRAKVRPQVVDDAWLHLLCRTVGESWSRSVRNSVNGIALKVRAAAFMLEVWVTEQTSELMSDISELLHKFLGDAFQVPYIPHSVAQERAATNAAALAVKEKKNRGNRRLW
UniProt Q57UX0: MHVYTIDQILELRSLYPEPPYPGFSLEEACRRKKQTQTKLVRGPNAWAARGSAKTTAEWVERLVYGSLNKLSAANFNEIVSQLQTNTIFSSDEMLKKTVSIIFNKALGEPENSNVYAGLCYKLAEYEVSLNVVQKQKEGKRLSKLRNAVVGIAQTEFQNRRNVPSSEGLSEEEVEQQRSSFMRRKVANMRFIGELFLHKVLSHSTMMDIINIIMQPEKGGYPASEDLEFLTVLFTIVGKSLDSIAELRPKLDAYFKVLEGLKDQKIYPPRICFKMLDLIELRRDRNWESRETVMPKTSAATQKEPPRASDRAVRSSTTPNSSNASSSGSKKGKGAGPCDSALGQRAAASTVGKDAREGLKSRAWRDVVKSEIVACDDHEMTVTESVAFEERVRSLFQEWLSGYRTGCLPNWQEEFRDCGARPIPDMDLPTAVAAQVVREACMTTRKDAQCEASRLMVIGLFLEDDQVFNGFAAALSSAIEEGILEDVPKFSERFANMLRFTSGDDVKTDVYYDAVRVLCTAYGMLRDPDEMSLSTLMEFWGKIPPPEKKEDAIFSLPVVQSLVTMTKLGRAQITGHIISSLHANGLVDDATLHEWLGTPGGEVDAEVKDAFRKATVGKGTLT
UniProt Q383M3: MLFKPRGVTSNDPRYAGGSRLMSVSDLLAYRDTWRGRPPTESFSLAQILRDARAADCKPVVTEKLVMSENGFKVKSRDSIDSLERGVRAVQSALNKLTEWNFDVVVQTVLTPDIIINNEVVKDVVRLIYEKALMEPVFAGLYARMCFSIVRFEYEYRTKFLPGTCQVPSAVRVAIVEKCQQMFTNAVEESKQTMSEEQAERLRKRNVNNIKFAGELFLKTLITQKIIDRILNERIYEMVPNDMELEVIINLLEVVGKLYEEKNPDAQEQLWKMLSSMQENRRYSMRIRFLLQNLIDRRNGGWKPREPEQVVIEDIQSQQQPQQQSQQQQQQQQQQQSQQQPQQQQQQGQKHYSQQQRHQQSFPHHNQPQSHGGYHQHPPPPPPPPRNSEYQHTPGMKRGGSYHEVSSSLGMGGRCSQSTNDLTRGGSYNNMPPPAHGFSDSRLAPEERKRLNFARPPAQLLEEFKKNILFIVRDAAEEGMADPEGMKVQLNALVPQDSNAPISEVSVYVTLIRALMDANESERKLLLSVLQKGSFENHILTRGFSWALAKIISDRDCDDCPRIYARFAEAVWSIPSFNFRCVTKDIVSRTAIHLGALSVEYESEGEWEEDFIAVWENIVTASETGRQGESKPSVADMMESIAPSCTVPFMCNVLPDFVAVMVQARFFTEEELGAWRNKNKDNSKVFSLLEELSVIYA
UniProt Q4GZD0: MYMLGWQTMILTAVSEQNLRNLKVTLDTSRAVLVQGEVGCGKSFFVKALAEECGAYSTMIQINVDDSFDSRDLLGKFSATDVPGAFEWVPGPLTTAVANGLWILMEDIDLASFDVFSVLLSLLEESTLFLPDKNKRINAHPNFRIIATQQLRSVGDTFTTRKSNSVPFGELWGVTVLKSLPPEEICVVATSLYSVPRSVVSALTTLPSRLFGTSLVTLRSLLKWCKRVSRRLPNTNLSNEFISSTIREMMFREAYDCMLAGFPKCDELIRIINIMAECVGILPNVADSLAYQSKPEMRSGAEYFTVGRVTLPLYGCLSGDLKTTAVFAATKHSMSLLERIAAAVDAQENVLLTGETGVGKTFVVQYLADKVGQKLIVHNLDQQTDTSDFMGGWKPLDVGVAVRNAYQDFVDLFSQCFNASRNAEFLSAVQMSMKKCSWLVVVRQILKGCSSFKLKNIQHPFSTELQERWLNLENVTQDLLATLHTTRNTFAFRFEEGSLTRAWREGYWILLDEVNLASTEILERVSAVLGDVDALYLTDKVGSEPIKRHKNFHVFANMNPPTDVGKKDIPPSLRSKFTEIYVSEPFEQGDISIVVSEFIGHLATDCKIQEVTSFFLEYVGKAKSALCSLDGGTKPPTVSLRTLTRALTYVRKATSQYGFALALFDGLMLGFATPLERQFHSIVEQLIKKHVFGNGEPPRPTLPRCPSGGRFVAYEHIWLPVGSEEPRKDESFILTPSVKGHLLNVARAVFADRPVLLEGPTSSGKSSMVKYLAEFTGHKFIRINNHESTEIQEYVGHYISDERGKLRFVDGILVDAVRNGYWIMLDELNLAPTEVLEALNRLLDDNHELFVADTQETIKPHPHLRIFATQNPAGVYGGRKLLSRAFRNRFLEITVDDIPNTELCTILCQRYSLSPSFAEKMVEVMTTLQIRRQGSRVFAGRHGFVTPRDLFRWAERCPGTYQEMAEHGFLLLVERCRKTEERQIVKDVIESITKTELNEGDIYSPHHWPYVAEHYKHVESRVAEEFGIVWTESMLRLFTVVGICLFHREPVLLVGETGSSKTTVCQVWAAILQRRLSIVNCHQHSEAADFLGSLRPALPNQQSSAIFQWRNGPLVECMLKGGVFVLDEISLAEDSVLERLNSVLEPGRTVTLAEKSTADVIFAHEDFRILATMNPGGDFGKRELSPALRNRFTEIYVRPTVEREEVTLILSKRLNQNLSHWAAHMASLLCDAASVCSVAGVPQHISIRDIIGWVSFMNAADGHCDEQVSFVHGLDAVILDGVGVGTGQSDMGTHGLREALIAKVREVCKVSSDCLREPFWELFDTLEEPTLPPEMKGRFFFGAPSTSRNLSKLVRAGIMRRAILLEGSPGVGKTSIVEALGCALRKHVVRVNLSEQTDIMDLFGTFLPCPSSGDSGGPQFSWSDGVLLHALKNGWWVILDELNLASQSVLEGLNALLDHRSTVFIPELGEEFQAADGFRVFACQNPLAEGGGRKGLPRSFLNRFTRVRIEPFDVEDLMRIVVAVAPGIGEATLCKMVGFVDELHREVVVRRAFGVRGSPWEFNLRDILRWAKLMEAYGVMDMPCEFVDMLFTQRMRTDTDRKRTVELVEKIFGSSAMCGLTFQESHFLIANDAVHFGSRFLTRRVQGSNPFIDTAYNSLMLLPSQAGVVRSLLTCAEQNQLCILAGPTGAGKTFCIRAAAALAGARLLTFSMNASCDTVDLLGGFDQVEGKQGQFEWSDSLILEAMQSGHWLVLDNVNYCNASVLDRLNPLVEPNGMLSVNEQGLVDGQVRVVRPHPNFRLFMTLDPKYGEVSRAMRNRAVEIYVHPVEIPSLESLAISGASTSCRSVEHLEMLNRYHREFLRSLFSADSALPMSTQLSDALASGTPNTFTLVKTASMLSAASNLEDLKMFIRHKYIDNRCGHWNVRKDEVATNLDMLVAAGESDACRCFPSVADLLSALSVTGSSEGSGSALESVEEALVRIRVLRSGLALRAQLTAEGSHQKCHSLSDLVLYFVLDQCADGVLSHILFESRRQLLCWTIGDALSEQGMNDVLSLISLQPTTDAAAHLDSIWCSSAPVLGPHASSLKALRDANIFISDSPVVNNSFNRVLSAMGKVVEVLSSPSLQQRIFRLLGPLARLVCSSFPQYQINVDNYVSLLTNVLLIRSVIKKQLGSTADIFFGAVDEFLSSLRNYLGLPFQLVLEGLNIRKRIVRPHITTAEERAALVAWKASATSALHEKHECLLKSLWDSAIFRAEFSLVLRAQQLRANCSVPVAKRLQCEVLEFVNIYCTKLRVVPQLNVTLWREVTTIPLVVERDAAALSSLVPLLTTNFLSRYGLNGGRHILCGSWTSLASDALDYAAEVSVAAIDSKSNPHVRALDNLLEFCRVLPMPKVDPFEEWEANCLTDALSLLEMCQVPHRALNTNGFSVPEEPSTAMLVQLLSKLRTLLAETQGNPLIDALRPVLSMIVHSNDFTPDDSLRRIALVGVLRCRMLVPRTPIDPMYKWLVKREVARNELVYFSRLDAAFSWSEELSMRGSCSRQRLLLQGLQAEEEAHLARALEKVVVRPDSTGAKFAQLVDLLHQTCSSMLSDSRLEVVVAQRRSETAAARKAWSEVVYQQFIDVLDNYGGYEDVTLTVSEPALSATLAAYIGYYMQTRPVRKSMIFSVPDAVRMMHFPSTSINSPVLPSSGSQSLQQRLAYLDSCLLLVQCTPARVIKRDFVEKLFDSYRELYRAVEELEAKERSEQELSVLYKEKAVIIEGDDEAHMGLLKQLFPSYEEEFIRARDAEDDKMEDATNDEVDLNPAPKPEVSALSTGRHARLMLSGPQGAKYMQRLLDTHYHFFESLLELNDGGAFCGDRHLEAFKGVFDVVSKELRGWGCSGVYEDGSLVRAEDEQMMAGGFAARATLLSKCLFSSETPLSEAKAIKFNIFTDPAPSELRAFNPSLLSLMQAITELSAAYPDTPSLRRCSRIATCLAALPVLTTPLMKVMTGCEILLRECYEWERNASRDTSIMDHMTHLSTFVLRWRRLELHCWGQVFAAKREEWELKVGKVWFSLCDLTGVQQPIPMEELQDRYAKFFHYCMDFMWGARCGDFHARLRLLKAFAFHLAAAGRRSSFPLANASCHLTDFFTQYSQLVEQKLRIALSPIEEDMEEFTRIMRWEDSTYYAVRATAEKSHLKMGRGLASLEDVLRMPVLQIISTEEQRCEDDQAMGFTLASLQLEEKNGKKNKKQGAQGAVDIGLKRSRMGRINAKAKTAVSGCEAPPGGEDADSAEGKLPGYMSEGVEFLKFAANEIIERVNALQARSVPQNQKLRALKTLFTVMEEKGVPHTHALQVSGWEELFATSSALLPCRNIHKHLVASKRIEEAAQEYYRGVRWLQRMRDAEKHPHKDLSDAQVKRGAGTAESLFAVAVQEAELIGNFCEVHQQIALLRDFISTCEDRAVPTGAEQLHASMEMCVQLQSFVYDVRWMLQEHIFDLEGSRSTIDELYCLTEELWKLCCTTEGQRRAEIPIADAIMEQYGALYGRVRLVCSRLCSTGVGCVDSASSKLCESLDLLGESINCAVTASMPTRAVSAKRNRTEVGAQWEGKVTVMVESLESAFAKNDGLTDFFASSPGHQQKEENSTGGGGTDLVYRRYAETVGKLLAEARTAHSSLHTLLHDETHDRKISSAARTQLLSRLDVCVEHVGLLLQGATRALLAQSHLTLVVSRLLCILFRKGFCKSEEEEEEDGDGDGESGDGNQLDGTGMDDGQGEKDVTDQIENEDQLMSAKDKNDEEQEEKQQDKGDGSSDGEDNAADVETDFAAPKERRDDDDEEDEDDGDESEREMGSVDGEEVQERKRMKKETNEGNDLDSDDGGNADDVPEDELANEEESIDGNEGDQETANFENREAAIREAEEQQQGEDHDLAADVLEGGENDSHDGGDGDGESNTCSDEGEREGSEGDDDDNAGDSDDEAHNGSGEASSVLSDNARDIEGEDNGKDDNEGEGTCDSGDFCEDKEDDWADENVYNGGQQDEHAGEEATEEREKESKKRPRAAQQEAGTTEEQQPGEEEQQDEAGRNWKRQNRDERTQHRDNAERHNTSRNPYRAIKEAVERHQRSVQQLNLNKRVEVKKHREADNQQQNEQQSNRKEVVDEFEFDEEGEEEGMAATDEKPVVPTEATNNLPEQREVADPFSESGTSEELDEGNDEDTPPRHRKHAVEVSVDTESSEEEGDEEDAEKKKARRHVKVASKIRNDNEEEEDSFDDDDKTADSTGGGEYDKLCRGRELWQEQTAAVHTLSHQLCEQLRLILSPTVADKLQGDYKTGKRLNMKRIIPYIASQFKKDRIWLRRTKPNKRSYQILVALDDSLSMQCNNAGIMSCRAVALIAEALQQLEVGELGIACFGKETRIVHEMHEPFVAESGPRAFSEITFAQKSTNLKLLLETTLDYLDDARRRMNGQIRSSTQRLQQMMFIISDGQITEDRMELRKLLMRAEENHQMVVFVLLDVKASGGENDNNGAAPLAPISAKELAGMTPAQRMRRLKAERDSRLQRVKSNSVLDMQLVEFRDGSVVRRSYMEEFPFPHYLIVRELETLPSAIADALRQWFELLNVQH
UniProt Q389L2: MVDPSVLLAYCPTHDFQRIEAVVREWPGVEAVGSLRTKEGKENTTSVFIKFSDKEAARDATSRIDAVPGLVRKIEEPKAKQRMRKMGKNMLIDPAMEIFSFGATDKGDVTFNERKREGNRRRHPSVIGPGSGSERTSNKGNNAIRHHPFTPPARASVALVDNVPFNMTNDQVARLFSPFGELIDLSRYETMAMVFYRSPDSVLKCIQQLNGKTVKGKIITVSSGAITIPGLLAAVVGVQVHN

What all share (assay): affinity purification with mass spectrometry; eYFP-tagged bait captured from lysate of cryogenically ground T. brucei procyclic cells (100 mM KCl, 1 mM MgCl2, 50 mM Hepes pH 7.2, 5% glycerol; no detergent, no RNase added) on llama anti-GFP nanobody (LaG-16-G4S-LaG-2) Dynabeads; biological triplicates; enrichment against the eYFP-DRBD4 control, or pairwise between the two eIF4E and the two eIF4G baits

Experiment [1] addresses Eukaryotic translation initiation factor 4E-3 (Trypanosoma brucei (endogenous in procyclic Lister 427 cells)) (UniProt Q383A4).
For experiment [2], the target named is Eukaryotic translation initiation factor 4E-4 (Trypanosoma brucei (endogenous in procyclic Lister 427 cells)) (UniProt Q585M4).
The target of experiment [3] is Eukaryotic translation initiation factor 4 gamma 3 (Trypanosoma brucei (endogenous in procyclic Lister 427 cells)) (UniProt Q57UX0).
Experiment [4] deals with Eukaryotic translation initiation factor 4G type 4 (Trypanosoma brucei (endogenous in procyclic Lister 427 cells)) (UniProt Q383M3).
Experiment [5] deals with Eukaryotic translation initiation factor 4E-3 (Trypanosoma brucei (endogenous in procyclic Lister 427 cells)) (UniProt Q383A4). The source holds these as a separate data set.
In experiment [6] the target is Eukaryotic translation initiation factor 4G type 4 (Trypanosoma brucei (endogenous in procyclic Lister 427 cells)) (UniProt Q383M3). The source holds these as a separate data set.
Experiment [7] concerns the target Eukaryotic translation initiation factor 4 gamma 3 (Trypanosoma brucei (endogenous in procyclic Lister 427 cells)) (UniProt Q57UX0). The source holds these as a separate data set.
Experiment [8] has as its target Eukaryotic translation initiation factor 4E-4 (Trypanosoma brucei (endogenous in procyclic Lister 427 cells)) (UniProt Q585M4). The source holds these as a separate data set.

Read-outs that look alike come from different tables or passages of the source. These are yes or no findings as the source states them, for the method shown. Binding seen in cells or lysates may run through a third protein. A yes stands for co-enrichment or nearness to the bait. Other partners may have been found. For some of these results: No binding means not detected with the bait.

Take Midasin (from UniProt Q4GZD0 1-4600): the binding entry in experiment [1] is on record as “binds”.

As for “Eukaryotic translation initiation factor 4 gamma 3 (from UniProt Q57UX0)”, the binding entry in experiment [1] is on record as “no binding”; in experiment [2] it was “binds”.

As to “Eukaryotic translation initiation factor 4G type 4 (from UniProt Q383M3)”, the binding entry was “binds” in experiment [1] and “no binding” in experiment [2].

In the case of “40S ribosomal protein S15 (from UniProt Q57XN7)”, in experiment [1], the binding result was “binds”.

On to “RNA-binding protein 23 (from UniProt Q389L2)”, for which the binding entry in experiment [3] is “binds”; in experiment [1], “no binding”; in experiment [2], “binds”; in experiment [4], “no binding”.

Turning to “Eukaryotic translation initiation factor 4E-4 (from UniProt Q585M4)”, the binding result in experiment [3] was “binds”; in experiment [1], “no binding”; in experiment [4] it was “no binding”.

For the molecule “Centrin arm-associated protein 1 (from UniProt Q38C95)”, the binding entry in experiment [1] is on record as “binds”.

B1: ATP-dependent 6-phosphofructokinase (enzyme, UniProt O15648 1-487)
chain: MAVESRSRVTSKLVKAHRAMLNSVTQEDLKVDRLPGADYPNPSKKYSSRTEFRDKTDYIMYNPRPRDEPSSENPVSVSPLLCELAAARSRIHFNPTETTIGIVTCGGICPGLNDVIRSITLTGINVYNVKRVIGFRFGYWGLSKKGSQTAIELHRGRVTNIHHYGGTILGSSRGPQDPKEMVDTLERLGVNILFTVGGDGTQRGALVISQEAKRRGVDISVFGVPKTIDNDLSFSHRTFGFQTAVEKAVQAIRAAYAEAVSANYGVGVVKLMGRDSGFIAAQAAVASAQANICLVPENPISEQEVMSLLERRFCHSRSCVIIVAEGFGQDWGRGSGGYDASGNKKLIDIGVILTEKVKAFLKANKSRYPDSTVKYIDPSYMIRACPPSANDALFCATLATLAVHEAMAGATGCIIAMRHNNYILVPIKVATSVRRVLDLRGQLWRQVREITVDLGSDVRLARKLEIRRELEAINRNRDRLHEELAKL
Turning to B1, the binding entry in experiment [5] and in experiment [6] was “binds” throughout.

B2: CRK1 kinase (enzyme, UniProt P38973 1-301)
chain: MGSRYERLQKIGEGSYGVVFRARDVTTGTIVAVKRIRLEKEEEGVPCTAIREISILKELRHENIVRLLDVCHSEKRLTLVFECMEMDLKKYMDHVGGDLDAGTIQEFMRSLLSGVRFCHERNVLHRDLKPPNLLISREKELKLADFGLGRAFGIPVKKFTQEVVTLWYRSPDVLLGSTQYGTPVDIWSVGCIFAEMAIGAPLFTGKNDADQLLRIFQFLGTPNRQVWPSMDTYPNSSNMLSRPEFQQTLAATCEEQFQTNPAYAKLGPQGIDLLRWLLRYEPSERLTAAQALEHPYFSVEF
On to B2, for which the binding entry in experiment [7] and in experiment [8] was “binds” throughout.

B3: Polyadenylate-binding protein 1 (protein, UniProt Q38E63 1-566)
chain: MTIAAQGVPSGPSATKPLQVASLYVGDLDPAINEPQLVDIFKPYGTILNVRVCRDIITQRSLGYGYVNYDDVNSASKAMEELNFKRVGEKCIRIMWQQRDPALRYSGSGNIFVKNLKEEVDSRELSLIFKKFGEILSCKVMDDESGKSRGYGFVHFKDDDAAKAAIEKMNGDKEHADADKAALYVANFIRRNARLAALVANFTNVYIKQLLPTVDKDVIEKFFSKFGGITSAAICKDKNGRAFAFCNFEKHDDAVKAIEASHDQEVEGVTQPGEKLYVQRAQPRSERLIALRQKYMQCQSLGNNLYVRNFDAEFTEKDLNELFKEYGVIRSCRVMTDANGISRGFGFVSFENADQANAALREMNGRMLNGKPLVVNIAQRRDQRLTMLKLQLQQRLQMMMHHMHPPPFGMPGHPLQRRNARSGGRGNRPHPRQQQPQPQPEPQPPLATTVPPAAAHSVMFTAPSMGFSAVPRTPQASPAIAPDTPPLPPISAEDLQQMSVDEQRAALGDRLYIKVHELAPDHAPKITGMFLEMNPKEALALLSNPKLMHEKVTEALCVLKVHASSA
B3: the binding entry in experiment [7] is given as “binds”; in experiment [5], “no binding”; in experiment [8], “binds”; in experiment [6], “no binding”.

B4: Uncharacterized protein, conserved Tb927.7.4530 (protein, UniProt Q57X69 1-696)
chain: MPRIHIFENCGCSSGDGFIKAPSSGMWQCTLPSNAEQSPRVIAKKGRNGGHEILVKHTGLTGASGICPFVVESYDCGLTNPRGPQPCAQLVPRFVSPQRLQLISTSSRFLCSFLLTTNVRSADEVDVISFQCICPGARTPSGTGIAFAAAAEATWVDVVSLLRGEQIKGRTSFNAARVWRLQWGVVEAAEVEGVSDLRAGSTLAWRVVEELPLKGLVEDAVSRGGGTLQVAIAGARRKEECRKTAAASPRAESGSNKREPAAKAADADIPRFTPAAHVISADAEPPTLQPKLKRQREGESDPSSPRNLTVEFALAQEMDAKGAVGELRGGKGTDGTMSAGLVAPQRSGKRKPTYAEVLMRSEQPTDTARVAGPKVLVLREWRQRLGELRVEVGYVNNEDGILSLAKGWLRETGKESVGKSVKMVTTLVSASLRELLCGAHLNVAVQCRLSRCKKSDELASLRKCVDIAVVLGKEVDKLPQDTSVGLQFSKYILKLRLLRHRCFATVLMDKTVSRPLFVEALRLCRRLLRLLKEENIASTNSNVCDKDSDACSRQISLGVYTAALAAMELSLFTPENNKVQNGITLIAGELFLWLCNSKCEERDVPASLLACLESMVDEGSGLHQGGARVLSELLSSLESPTAILACSERCSNTVELCCGVVRDVANSAAFDQQFARTGALLRRVRTLGGKTNEKNG
As to B4, the binding result in experiment [7] is “binds”.

B5: 40S ribosomal protein S24 (protein, UniProt Q38AM9 1-137)
chain: MVFQKKKAEVTVRTSQFKVNKLLNRKQFVVEVNHPGWCGTVPAKLIRNRLASLYKVADENQISVFGFKTKFGGGKTTGFGLIYDDLAAMKRIEPNYRKARLGMGKKKLPARKSVKERRNRNKKIRGKAKGKMQTKKK
For B5, the binding entry in experiment [7] and in experiment [6] was “binds” in each case.

B6: Eukaryotic initiation factor 4A-1 (protein, UniProt Q38F76 1-404)
chain: MAQQGKVEPQDQDSFLDDQPGIRPIPSFDDMPLHQNLLRGIYSHGFEKPSSIQQRAIVPFTRGGDIIAQAQSGTGKTGAFSIGLLQRLDFRHNVLQGLVLSPTRELAMQTAEVITRIGEFLAEGSSSFCATFVGGTRVQDDYRKLQSGTIVAVGTPGRVVDVTKRGAMRTESLRVLVLDEADEMLSQGFAEQIYDIFRFLPKEIQVALFSATMPDDVLELTKKFMRDPTRILVKRESLTLEGIKQFFIAVEEEHKLDTLMDLYETVSIAQSVIFANTRRKVDWLASQLNSSNHTVSCMHSEMSKQEREKVMGTFRNGSSRVLVTTDLVARGIDVHHVNIVINFDLPTNKENYLHRIGRGGRYGRKGVAINFVTQKDVEVLREIESHYHTQIEELPVDFAAYLGE
Regarding B6, the binding entry in experiment [5] was “no binding”; in experiment [8], “binds”; in experiment [6] it was “no binding”.
